The exact form of at least one protein or probe is not confirmed. For part of these data: Negatives hold for the conditions tested. For part of these data: The comparison behind a weaker result is the experiment's own reference, which may not be listed here. For part of these data: At least one verdict was read from the data and is not stated in words by the source.
How the values were obtained:
J2 IgG WT [1] = assay: BLI; settings: BLI: 25 mM Tris-HCl pH 7.5, 100-400 mM KCl (per row), 2 mM MgCl2, 25 C, IgG immobilized on Protein A, recombinant protein, protein details: His8 (HC C-term)
J2 IgG WT [2] = assay: FP competition; settings: vs 3'-FAM VA-I RNA; recombinant protein; protein details: His8 (HC C-term)
J2 IgG LC W56A = assay: BLI; settings: 100 mM KCl, severe reduction, Kd N.D.; BLI: 25 mM Tris-HCl pH 7.5, 100-400 mM KCl (per row), 2 mM MgCl2, 25 C, IgG immobilized on Protein A; recombinant …; protein details: His8 (HC)
J2 IgG LC Y101A = assay: BLI; settings: 100 mM KCl, strongly reduced; BLI: 25 mM Tris-HCl pH 7.5, 100-400 mM KCl (per row), 2 mM MgCl2, 25 C, IgG immobilized on Protein A; recombinant protein; protein details: His8 (HC)
J2 IgG HC N55A = assay: BLI; settings: 100 mM KCl, Kd N.D.; BLI: 25 mM Tris-HCl pH 7.5, 100-400 mM KCl (per row), 2 mM MgCl2, 25 C, IgG immobilized on Protein A; recombinant protein; protein details: His8
J2 IgG HC P102A = assay: BLI; settings: 100 mM KCl; BLI: 25 mM Tris-HCl pH 7.5, 100-400 mM KCl (per row), 2 mM MgCl2, 25 C, IgG immobilized on Protein A; recombinant protein; protein details: His8
J2 IgG HC N101A = assay: BLI; settings: 100 mM KCl; BLI: 25 mM Tris-HCl pH 7.5, 100-400 mM KCl (per row), 2 mM MgCl2, 25 C, IgG immobilized on Protein A; recombinant protein; protein details: His8
J2 IgG HC Y50A = assay: BLI; settings: 100 mM KCl, Kd N.D.; BLI: 25 mM Tris-HCl pH 7.5, 100-400 mM KCl (per row), 2 mM MgCl2, 25 C, IgG immobilized on Protein A; recombinant protein; protein details: His8
J2 IgG LC S33R = assay: BLI; settings: 100 mM KCl, nearly abolished, Kd N.D.; BLI: 25 mM Tris-HCl pH 7.5, 100-400 mM KCl (per row), 2 mM MgCl2, 25 C, IgG immobilized on Protein A; recombinant …; protein details: His8 (HC)
J2 IgG HC N101R = assay: BLI; settings: 100 mM KCl, below N101A; BLI: 25 mM Tris-HCl pH 7.5, 100-400 mM KCl (per row), 2 mM MgCl2, 25 C, IgG immobilized on Protein A; recombinant protein; protein details: His8
J2 IgG HC W104A = assay: BLI; settings: 100 mM KCl, Kd N.D.; BLI: 25 mM Tris-HCl pH 7.5, 100-400 mM KCl (per row), 2 mM MgCl2, 25 C, IgG immobilized on Protein A; recombinant protein; protein details: His8
J2 IgG HC Y52A = assay: BLI; settings: 100 mM KCl, Kd N.D.; BLI: 25 mM Tris-HCl pH 7.5, 100-400 mM KCl (per row), 2 mM MgCl2, 25 C, IgG immobilized on Protein A; recombinant protein; protein details: His8
J2 Fab = assay: X-ray; settings: 2.85 A, 2 Fabs on one dsRNA; recombinant protein; protein details: His6 (HC C-term)
J2 IgG WT [3] = assay: SV-AUC; settings: 1:1 complex; recombinant protein; protein details: His8 (HC C-term)

Sequence: AAAAAAAAAAAAAAAAAAAAAAAAAAAAAAAAAAAAAAAA (double strand) [poly(dA)-poly(dT) 40 bp]
- binding result (J2 IgG WT [1]; 400 mM KCl): no binding

Sequence: AAAAAAAAAAAAAAAAAAAAAAAAAAAAAAAAAAAAAAAA (double strand) [poly(rA)-poly(dT) 40 bp]
- binding result (J2 IgG WT [1]; 400 mM KCl, weaker than poly(rA)-poly(rU), strand 1 RNA, strand 2 DNA, DNA:RNA hybrid): binds more weakly

Sequence: AAAAAAAAAAAAAAAAAAAAAAAAAAAAAAAAAAAAAAAA / UUUUUUUUUUUUUUUUUUUUUUUUUUUUUUUUUUUUUUUU [poly(dA)-poly(rU) 40 bp]
- binding result (J2 IgG WT [1]; 400 mM KCl, strand 1 DNA, strand 2 RNA, DNA:RNA hybrid): no binding

Sequence: AAAAAAAAAAAAAAAAAAAAAAAAAAAAAAAAAAAAAAAA / UUUUUUUUUUUUUUUUUUUUUUUUUUUUUUUUUUUUUUUU [poly(rA)-poly(rU) 40 bp]
- binding result (J2 IgG WT [1]; 400 mM KCl): binds more weakly

Sequence: GTTGTAAAGAAATATAACAGGCTTGTACCATTGATGGAAA (double strand) [40-bp dsDNA]
- binding result (J2 IgG WT [1]; 400 mM KCl): no binding

Sequence: GTTGTAAAGAAATATAACAGGCTTGTACCATTGATGGAAA [40-nt ssDNA]
- binding result (J2 IgG WT [1]; 400 mM KCl, single-stranded DNA): no binding

Sequence: GUUGUA / UACAAC [6-bp dsRNA]
- binding result (J2 IgG WT [2]): no binding
- binding result (J2 IgG WT [1]; 100 mM KCl): no binding

Sequence: GUUGUAAAGA / UCUUUACAAC [10-bp dsRNA]
- binding result (J2 IgG WT [2]): binds more weakly
- binding result (J2 IgG WT [1]; 100 mM KCl, Kd N.D.): binds more weakly

Sequence: GUUGUAAAGAAAUAUAACAGGCUUGUACCAUUGAUGGAAA / TTTCCATCAATGGTACAAGCCTGTTATATTTCTTTACAAC [40-bp RNA-DNA hybrid]
- binding result (J2 IgG WT [1]; 400 mM KCl, robustly discriminated against, DNA:RNA hybrid): no binding

Sequence: GUUGUAAAGAAAUAUAACAGGCUUGUACCAUUGAUGGAAA [40-nt ssRNA]
- binding result (J2 IgG WT [1]; 400 mM KCl): no binding

Sequence: GUUGUAAAGAAAUAUAGGCU / AGCCUAUAUUUCUUUACAAC [20-bp dsRNA]
- binding result (J2 IgG LC W56A): binds more weakly
- binding result (J2 IgG LC Y101A): binds more weakly
- binding result (J2 IgG HC N55A): binds more weakly
- binding result (J2 IgG HC P102A): binds more weakly
- binding result (J2 IgG HC N101A): binds more weakly
- binding result (J2 IgG HC Y50A): binds more weakly
- binding result (J2 IgG LC S33R): binds more weakly
- binding result (J2 IgG HC N101R): binds more weakly
- binding result (J2 IgG HC W104A): binds more weakly
- binding result (J2 IgG HC Y52A): binds more weakly

Sequence: GUUGUAAAGAAGGU / ACCUUCUUUACAAC [14-bp dsRNA]
- binding result (J2 IgG WT [2]): binds more weakly

Sequence: GUUGUAAAGAAGGUCAAUAUUGUA / AACAAUAUUGACCUUCUUUACAAC [crystallization dsRNA (23 bp + terminal A-A mismatch)]
- binding result (J2 Fab): binds

Sequence: GUUGUAAAUAAAUAUAAUAGUUCUAUACUA / UAGUAUAGAACUAUUAUAUUUAUUUACAAC [30-bp dsRNA 17% GC]
- binding result (J2 IgG WT [1]; 200 mM KCl, nanomolar Kd): binds
- binding result (J2 IgG WT [3]): binds

Sequence: GUUGUCCAGAAAUAAGGCUGCGUACCAAAC / GUUUGGUACGCAGCCUUAUUUCUGGACAAC [30-bp dsRNA 47% GC]
- binding result (J2 IgG WT [1]; 200 mM KCl, nanomolar Kd): binds
